Experimental data from the supplement of paper PMC5949888.
Most values lie at the floor of the assay. Slopes are relative: functional sequences can read slightly below zero.

test system: Saccharomyces cerevisiae PS128 hsf1 delta, HSF1(1-493) fusion; test: growth estimate (transactivation domain function in HSF1 fusion, heat-shock survival) (a.u. (slope of normalised read count over time)); higher = stronger growth at 37°C, i.e. more transactivation activity; settings: library: random library

Substance | growth estimate
GFRSIGY | < -0.25
GRTVAGGRSMPEEIAAIRAP | < -0.25
HWPNVQNLSTYGNTDKMAVL | < -0.25
VGGIDLRMRCSLYLPN | < -0.25
VDQKARSCH | < -0.25
RSWVVDDYQNLFIKARSDPF | -0.24
KGNIAQSLIRRHYAK | < -0.25
THVRGPSA | < -0.25
QPSQPLRDRRRLLNEYRDPP | < -0.25
DCNVPTLRRSQTMTRTTEPL | < -0.25
GHNERLGQHGPPIWMHVGSS | < -0.25
IVANNPRKGRRWGALRGKIV | < -0.25
STPYSR | < -0.25
RRASM | < -0.25
LVRCKIVSR | < -0.25
LEGLVSCTGTHGHPLSPHYP | < -0.25
DQFGENYTAMPLVRGPRN | < -0.25
KGFVGSNECGNYITSEEHSS | < -0.25
GSRPREARSSAGCGL | < -0.25
MTMAGVCTQRLPGSSRSGLV | < -0.25
KRVRGRNPRGLFGQRFLCMC | < -0.25
NEHVGTGILCLRGTGFSSVT | < -0.25
LDPVFTESRAGGERRAHKVC | < -0.25
LGPTLVTTGVKKRGPVEPHL | < -0.25
GSVLREGRHLRCKPPLGYSH | < -0.25
VRHLD | < -0.25

Substance | growth estimate
CQHPGC | < -0.25
PYRYDPLNKVALIVGVHPDS | < -0.25
LECLRRGGMKLPLRRPCS | < -0.25
LDPSARCRWIFCGGLG | < -0.25
TNRSPTVYGGYTGDRYRASP | < -0.25
AAVRDL | < -0.25
VRDVLERTLQPSRGRGDRYT | < -0.25
REF | < -0.25
SYYARLDSAYTFCFRR | < -0.25
QTGGCLSMIQHARDLYIVFL | < -0.25
MGSVSVRRGYSRLFASGT | -0.243
TIVDFSLTLYGFTPITDSLG | < -0.25
GMIVYIWTTGGTSGLIRKAI | < -0.25
VKSNFGSYTLG | < -0.25
LAVLVNIRAGYVIGQG | < -0.25
QAAAPRVGLTAVIVRSIRDP | < -0.25
TSKWNKRAVRAATPTGDRLC | < -0.25
SLERSSQVARQYCNVPDLQR | < -0.25
GQERSYVCDARRIGGQVGHH | < -0.25
ATIPRRTKFRTHGPLPESCP | < -0.25
GCGSYEKNANP | < -0.25
IDRHFRELSGEGHCCQTMLP | < -0.25
GTDCHYKRTLILSGYD | < -0.25
FMAERCRRSWQGALVCP | < -0.25
GEAMLYPGARSPSFAGLPPD | < -0.25
VLGPVNRN | < -0.25

Rewritten with tabs: entries from further up.
Substance	growth estimate
VGGIDLRMRCSLYLPN	< -0.25
DCNVPTLRRSQTMTRTTEPL	< -0.25

(next part)

Substance | growth estimate
GTSCPCIVNTGCTRNVFFVT | < -0.25
ELGLEPWAPDRNNYDKLGIA | < -0.25
VKMDGGPWS | < -0.25
SRGHGPRDRRSSYHANDY | < -0.25
RGGWT | < -0.25
VFQSWSLPCGALREAAWG | < -0.25
ILQGRFGGRTTMPPSGS | -0.246
ISSDQ | -0.243
VYGVFVTGKCGLSVPQRLGW | < -0.25
QGIIWQVSFS | < -0.25
YHHRVPNGMRHHTAHMTRVA | < -0.25
VVDKGVEFM | < -0.25
CTMCQ | < -0.25
REHLTRAP | < -0.25
IISSFECAPQRYADSYFADG | < -0.25
LVHLAETIALQISVGIRPVC | < -0.25
CRY | < -0.25
AIAVWSLDLYPLRLRSCAIV | < -0.25
PWSGHKKVRRPLDHDWGTVP | < -0.25
TIW | < -0.25
NRAVSFRVARKLRRV | < -0.25
RQRKALLR | < -0.25
AGQTAGGSFRVKMGCDIAAR | < -0.25
ECSPAGGVVVALALKSQPLS | < -0.25
AQRLLGSSTIVQSGSAIHSV | < -0.25
GVSHRRLLSCG | < -0.25

Substance | growth estimate
PFPDVSSL | < -0.25
VLSWERYTLHNLCSLARA | < -0.25
RHQSFVTGAVRILVYAAGWT | < -0.25
ASRTGAHPCLVPAVMELLTC | < -0.25
AIQEEVSQDS | < -0.25
FHNTSTMMDAHPDRV | < -0.25
CSFWTLCYTHLS | < -0.25
RIAPQRGNNLPGTARPTRV | -0.245
RHRES | < -0.25
LTPDGWRYGRQKRASVICRI | < -0.25
VPDDDPRDVKNSIRLSGHP | < -0.25
CPITLCPCQWLTVQRGRLMM | < -0.25
CTVIKLYHHF | < -0.25
EVFSWHFQ | < -0.25
GVRLLFAYASGPRWTFDLGR | < -0.25
RRAIASGGGRITNVWRVLSS | < -0.25
VYRHCKRAWPLSLGC | < -0.25
VGGWLQWIGIWVYPEMLEP | < -0.25
CHDCNGRWFFRLQKNPGPIQ | < -0.25
VSRYRTEGACMAGQG | < -0.25
LAPVDSCRGTSGDGSNGVPV | < -0.25
VDACYRHFSFIDDGLPTTSA | < -0.25
TPYTLDVIGSFLRL | -0.208
GFFYLFKGKPEVQYPAWCLG | < -0.25
GCKFIRKGRPMPQVITDRSK | < -0.25
RTWSSRRTREFE | < -0.25

Substance | growth estimate
PGRLQEKLWGHTDNY | < -0.25
MPVVLVNSETLSCQYGRVIA | < -0.25
VRYA | < -0.25
LKDGRCRLAFQLYLGPRAPG | < -0.25
ARKSEVKLRYGEGGSRSEHA | < -0.25
TNRKGSLFWLSPPVRGYSVM | < -0.25
HEA | < -0.25
LLFAREA | < -0.25
KRCLRIGRCK | < -0.25
QAGLGGRWKNFMQFARPPAE | < -0.25
PRSIPYNAYWHRAI | < -0.25
APLGGPTACLAHSDVQFVMF | < -0.25
GFVQSNRTMKVKAAGAWNTS | < -0.25
PAVINTWR | < -0.25
GILPFCNRIVALAQAKGRWV | < -0.25
LRLHSRPPVECECHRASLFR | < -0.25
CRLKPESTCSATAAG | < -0.25
WRL | < -0.25
QSKEIQTDAWWWSRSGFTYR | < -0.25
VSELAAVIT | < -0.25
RFPLYSEVLCGWKFPSQC | < -0.25
SVHISGVHAALVSDASGD | < -0.25
QNVGWAYESSIRVNGRTAGS | < -0.25
EQPVRADVSRFNEGCSLTSA | < -0.25
SHPIGAQTRRMCRDNPG | < -0.25
GMRSFAQRRLLLGRLRPPLL | < -0.25

Substance | growth estimate
VSIQDVQRGVRL | < -0.25
PNGLQGQRGPTPAIMDDRGV | < -0.25
GQKFRMIDGLPNAACDRTPV | < -0.25
STV | < -0.25
SECGRVYSSADSVSPVSTNG | < -0.25
YNSNS | < -0.25
SDRTPLVVKDSCRNLTTAVS | < -0.25
LTYGTSSVLSGALIGDDEGR | < -0.25
EQRGGLYHSGCEGSYRGMWG | < -0.25
KHCCGLEAGSRCRNPQLSGF | < -0.25
ADTTNPFSFPRLVVGTEGTG | < -0.25
VCTGLHCLGRNFQIAKRMHG | < -0.25
VTTRRRIQGGLRWLITENSV | < -0.25
WSHQTQACDHGVPFSDCVDS | < -0.25
PLPPSRSCTRKILEMTRTRR | < -0.25
HGASSRGFIGRRWLRFEAAL | < -0.25
LWMPAQNH | < -0.25
EGGPRFPSRHKKNFSVWPVA | < -0.25
RKLSCIFFGMGYRLFAGVCP | < -0.25
MLNAEQASGARVCVFTI | < -0.25
MEVRVKHVVTNIGCN | < -0.25
RRSCMAVVKMAKYGSKRQYR | < -0.25
TYNGNMSR | -0.243
FRTD | -0.23

Part of the list above, in markdown.

| Substance | growth estimate |
| --- | --- |
| RRSCMAVVKMAKYGSKRQYR | < -0.25 |
| TYNGNMSR | -0.243 |
| FRTD | -0.23 |
